Structures can show the parent of a compound that is named as a salt. The list shows a part of the results. Single values are uncertain here, since repeats match poorly.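 Human kidney-derived cells stably carry a construct in which eight TEAD-binding elements drive luciferase, measured by luminescence in a drug-repurposing library screen. A hit is any compound whose signal exceeds the plate mean by more than five robust Z scores.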
Tested on: HEK293A TEAD-LUC reporter
Assay: TEAD-luciferase reporter activity (YAP activation), robust Z score vs plate; higher = stronger YAP/TEAD activation
Details: 24 h

With `O=C(c1ccc(OCCN2CCCCC2)cc1)c1c(-c2ccc(O)cc2)sc2cc(O)ccc12` the TEAD-luciferase reporter activity (compound concentration: 200 nM) was inactive: 0.00704 and the TEAD-luciferase reporter activity (compound concentration: 10 uM) was inactive: -0.596.
In the case of `O=C(c1ccc(OCCN2CCCCC2)cc1)c1c(-c2ccc(O)cc2)sc2cc(O)ccc12` [raloxifene hydrochloride], the TEAD-luciferase reporter activity (compound concentration: 2 uM) is reported as inactive: -0.663.
In the case of `CC(C)=CCCC(C)=CCO`, the TEAD-luciferase reporter activity (compound concentration: 200 nM) is reported as inactive: -0.17, the TEAD-luciferase reporter activity (compound concentration: 2 uM) is reported as inactive: -1.64 and the TEAD-luciferase reporter activity (compound concentration: 10 uM) is reported as inactive: 2.49.
In the case of `CCCSc1ccccc1N1CCN(CCCCn2c(=O)[nH]c3ccc(C)cc3c2=O)CC1`, the TEAD-luciferase reporter activity (compound concentration: 200 nM) is reported as inactive: 0.391, the TEAD-luciferase reporter activity (compound concentration: 2 uM) is reported as inactive: -1.42 and the TEAD-luciferase reporter activity (compound concentration: 10 uM) is reported as inactive: 1.79.
For `N#Cc1ccccc1OCC(O)CNCCNC(=O)Cc1ccc(O)cc1` (stereo not drawn), the TEAD-luciferase reporter activity (compound concentration: 200 nM) was inactive: -0.164, the TEAD-luciferase reporter activity (compound concentration: 2 uM) was inactive: -0.703 and the TEAD-luciferase reporter activity (compound concentration: 10 uM) was inactive: -0.948.
With `CC[n+]1ccc(SCC2=C(C(=O)[O-])N3C(=O)[C@@H](NC(=O)/C(=N\O[C@@H](C)C(=O)O)c4csc(N)n4)[C@H]3SC2)cc1` the TEAD-luciferase reporter activity (compound concentration: 200 nM) was inactive: -2.7, the TEAD-luciferase reporter activity (compound concentration: 2 uM) was inactive: 0.636 and the TEAD-luciferase reporter activity (compound concentration: 10 uM) was inactive: 1.8.
`CCCS(=O)(=O)NC(=O)c1ccc(N(CC)Cc2cc(Br)ccc2OCC2CC2)nn1` was tested, and the TEAD-luciferase reporter activity (compound concentration: 200 nM) was inactive: -1.17, the TEAD-luciferase reporter activity (compound concentration: 2 uM) was inactive: 0.299 and the TEAD-luciferase reporter activity (compound concentration: 10 uM) was inactive: 2.42.
`C[C@H]1NCc2cc(-c3ccc4c(=O)c(C(=O)O)cn(C5CC5)c4c3OC(F)F)ccc21` was tested, and the TEAD-luciferase reporter activity (compound concentration: 200 nM) was inactive: -1, the TEAD-luciferase reporter activity (compound concentration: 2 uM) was inactive: 0.0685 and the TEAD-luciferase reporter activity (compound concentration: 10 uM) was inactive: 0.795.
With `CCCSc1ccc2[nH]c(NC(=O)OC)nc2c1` [albendazole] the TEAD-luciferase reporter activity (compound concentration: 2 uM) was inactive: -0.146.
`CCCSc1ccc2[nH]c(NC(=O)OC)nc2c1` [Albendazole] was tested, and the TEAD-luciferase reporter activity (compound concentration: 200 nM) was inactive: -1.26 and the TEAD-luciferase reporter activity (compound concentration: 10 uM) was inactive: 2.72.
`CCC[C@]1(CC(=O)O)OCCc2c1[nH]c1c(C)ccc(C#N)c21` was tested, and the TEAD-luciferase reporter activity (compound concentration: 200 nM) was inactive: -0.562, the TEAD-luciferase reporter activity (compound concentration: 2 uM) was inactive: -0.487 and the TEAD-luciferase reporter activity (compound concentration: 10 uM) was inactive: -0.968.
With `O=[N+]([O-])c1nccn1CC(O)CO` (stereo not drawn) the TEAD-luciferase reporter activity (compound concentration: 200 nM) was inactive: -2.15, the TEAD-luciferase reporter activity (compound concentration: 2 uM) was inactive: -1.79 and the TEAD-luciferase reporter activity (compound concentration: 10 uM) was inactive: 4.4.
`CC(=O)Nc1c(I)c(NC(C)=O)c(I)c(C(=O)O)c1I` [Diatrizoate] was tested, and the TEAD-luciferase reporter activity (compound concentration: 200 nM) was inactive: -1.13, the TEAD-luciferase reporter activity (compound concentration: 2 uM) was inactive: -1.21 and the TEAD-luciferase reporter activity (compound concentration: 10 uM) was inactive: 1.49.
`O=C(O)CCCc1cc2cc(Cl)ccc2n1S(=O)(=O)c1ccc2ncsc2c1` was tested, and the TEAD-luciferase reporter activity (compound concentration: 200 nM) was inactive: 0.849, the TEAD-luciferase reporter activity (compound concentration: 2 uM) was inactive: 1.46 and the TEAD-luciferase reporter activity (compound concentration: 10 uM) was inactive: -0.232.
In the case of `COc1cc2c(cc1S(=O)(=O)c1ccc(OCc3ccc(Cl)cc3)cc1)CCN(C)CC2`, the TEAD-luciferase reporter activity (compound concentration: 200 nM) is reported as inactive: 0.391, the TEAD-luciferase reporter activity (compound concentration: 2 uM) is reported as inactive: -0.236 and the TEAD-luciferase reporter activity (compound concentration: 10 uM) is reported as active: 6.77.
`COc1cc(C2CC(O)c3ccc4ccccc4c3O2)cc(OC)c1OC` (stereo not drawn) was tested, and the TEAD-luciferase reporter activity (compound concentration: 200 nM) was inactive: -0.591, the TEAD-luciferase reporter activity (compound concentration: 2 uM) was inactive: -0.833 and the TEAD-luciferase reporter activity (compound concentration: 10 uM) was inactive: 1.78.
In the case of `CCCCNC(=O)c1ccc(Oc2ccc(CC(=O)O)cc2OC)c(NS(=O)(=O)c2ccc(Cl)cc2Cl)c1`, the TEAD-luciferase reporter activity (compound concentration: 200 nM) is reported as inactive: -1.03, the TEAD-luciferase reporter activity (compound concentration: 2 uM) is reported as inactive: -0.2 and the TEAD-luciferase reporter activity (compound concentration: 10 uM) is reported as inactive: -1.71.
For `CS(=O)(=O)c1ccc([C@@H](CC2CCCC2)C(=O)Nc2ncc(SCC(=O)O)s2)cc1`, the TEAD-luciferase reporter activity (compound concentration: 200 nM) was inactive: -1.38, the TEAD-luciferase reporter activity (compound concentration: 2 uM) was inactive: -0.653 and the TEAD-luciferase reporter activity (compound concentration: 10 uM) was inactive: -0.904.
For `CCN1CCCC1CNC(=O)c1cc(S(=O)(=O)CC)c(N)cc1OC` (stereo not drawn) [Amisulpride], the TEAD-luciferase reporter activity (compound concentration: 200 nM) was inactive: 2.8 and the TEAD-luciferase reporter activity (compound concentration: 10 uM) was inactive: -2.02.
`CCN1CCCC1CNC(=O)c1cc(S(=O)(=O)CC)c(N)cc1OC` (stereo not drawn) [amisulpride] was tested, and the TEAD-luciferase reporter activity (compound concentration: 2 uM) was inactive: 0.47.
In the case of `CN(c1ccc(/C=C/C[C@H](NC(=O)c2ccccc2Cl)C(=O)O)cc1)c1ncccn1`, the TEAD-luciferase reporter activity (compound concentration: 200 nM) is reported as inactive: -0.548, the TEAD-luciferase reporter activity (compound concentration: 2 uM) is reported as inactive: -0.363 and the TEAD-luciferase reporter activity (compound concentration: 10 uM) is reported as inactive: -0.242.
With `CNC(=O)[C@@H](NC(=O)[C@@H](CC(=O)NO)CC(C)C)C(C)(C)C` the TEAD-luciferase reporter activity (compound concentration: 200 nM) was inactive: -0.295, the TEAD-luciferase reporter activity (compound concentration: 2 uM) was inactive: -0.958 and the TEAD-luciferase reporter activity (compound concentration: 10 uM) was inactive: -0.335.
With `CCCN(CC1CC1)c1nc(C)nc(Nc2c(Cl)cc(C)c3nccnc23)c1C` the TEAD-luciferase reporter activity (compound concentration: 200 nM) was inactive: -1.93, the TEAD-luciferase reporter activity (compound concentration: 2 uM) was inactive: 0.73 and the TEAD-luciferase reporter activity (compound concentration: 10 uM) was inactive: -1.39.
In the case of `COc1nc(C)cnc1NS(=O)(=O)c1cccnc1-c1ccc(-c2nnco2)cc1` [Zibotentan], the TEAD-luciferase reporter activity (compound concentration: 2 uM) is reported as inactive: 0.718.
With `COc1nc(C)cnc1NS(=O)(=O)c1cccnc1-c1ccc(-c2nnco2)cc1` the TEAD-luciferase reporter activity (compound concentration: 200 nM) was inactive: 2.16 and the TEAD-luciferase reporter activity (compound concentration: 10 uM) was inactive: -0.845.
With `C=C(N)N1CC[C@H](SC2=C(C(=O)O)N3C(=O)[C@H]([C@@H](C)O)[C@H]3C2)C1` the TEAD-luciferase reporter activity (compound concentration: 200 nM) was inactive: 0.315, the TEAD-luciferase reporter activity (compound concentration: 2 uM) was inactive: -2.2 and the TEAD-luciferase reporter activity (compound concentration: 10 uM) was inactive: 0.123.
For `CC(C)[C@H](C(=O)Nc1ccc(C(=O)NO)cc1)c1ccccc1`, the TEAD-luciferase reporter activity (compound concentration: 200 nM) was active: 7.38, the TEAD-luciferase reporter activity (compound concentration: 2 uM) was active: 21.4 and the TEAD-luciferase reporter activity (compound concentration: 10 uM) was active: 19.4.
`COC(=O)Nc1nc2ccc(C(=O)c3cccs3)cc2[nH]1` [nocodazole] was tested, and the TEAD-luciferase reporter activity (compound concentration: 200 nM) was inactive: 1.74, the TEAD-luciferase reporter activity (compound concentration: 2 uM) was active: 11.9 and the TEAD-luciferase reporter activity (compound concentration: 10 uM) was inactive: 4.11.
For `CN(C)CCCN1c2ccccc2C(C)(C)c2ccccc21`, the TEAD-luciferase reporter activity (compound concentration: 200 nM) was inactive: -1.28, the TEAD-luciferase reporter activity (compound concentration: 2 uM) was inactive: -1.17 and the TEAD-luciferase reporter activity (compound concentration: 10 uM) was inactive: 1.95.
With `O=C1C(Cl)=C(NCCN2CCOCC2)C(=O)c2ncccc21` the TEAD-luciferase reporter activity (compound concentration: 200 nM) was inactive: -2.64, the TEAD-luciferase reporter activity (compound concentration: 2 uM) was inactive: 0.445 and the TEAD-luciferase reporter activity (compound concentration: 10 uM) was inactive: 1.96.
In the case of `O=C(NC1CCN(Cc2cccc(-c3ccc(F)c(F)c3)c2)CC1)c1ccc(F)cc1`, the TEAD-luciferase reporter activity (compound concentration: 200 nM) is reported as inactive: -0.734 and the TEAD-luciferase reporter activity (compound concentration: 10 uM) is reported as inactive: 0.946.
With `O=C(Cc1ccccc1)NCC(=O)Nc1ccc(C2S/C(=N\c3cccc(F)c3)N(Cc3ccco3)C2=O)cc1` (stereo not drawn) the TEAD-luciferase reporter activity (compound concentration: 200 nM) was inactive: 1.8, the TEAD-luciferase reporter activity (compound concentration: 2 uM) was inactive: -1.04 and the TEAD-luciferase reporter activity (compound concentration: 10 uM) was inactive: 1.06.
In the case of `CC(C)OC(=O)OCOP(=O)(CO[C@H](C)Cn1cnc2c(N)ncnc21)OCOC(=O)OC(C)C` [tenofovir disoproxil fumarate], the TEAD-luciferase reporter activity (compound concentration: 200 nM) is reported as inactive: -1.16, the TEAD-luciferase reporter activity (compound concentration: 2 uM) is reported as inactive: 2.27 and the TEAD-luciferase reporter activity (compound concentration: 10 uM) is reported as inactive: -0.607.
With `CCCCC1(CCCC)CCc2c(OCc3ccc4ccccc4n3)cccc2C1O` (stereo not drawn) the TEAD-luciferase reporter activity (compound concentration: 200 nM) was inactive: -0.756, the TEAD-luciferase reporter activity (compound concentration: 2 uM) was inactive: 0.722 and the TEAD-luciferase reporter activity (compound concentration: 10 uM) was inactive: 1.93.
In the case of `Cc1cn([C@H]2C[C@H](N=[N+]=[N-])[C@@H](CO)O2)c(=O)[nH]c1=O`, the TEAD-luciferase reporter activity (compound concentration: 200 nM) is reported as inactive: -0.82 and the TEAD-luciferase reporter activity (compound concentration: 10 uM) is reported as inactive: 0.113.
In the case of `Cc1cn([C@H]2C[C@H](N=[N+]=[N-])[C@@H](CO)O2)c(=O)[nH]c1=O` [AZT, Supratek], the TEAD-luciferase reporter activity (compound concentration: 2 uM) is reported as inactive: -1.46.
For `Cc1c(Cc2cccnc2S(=O)(=O)c2ccc(F)cc2)c2cc(F)ccc2n1CC(=O)O`, the TEAD-luciferase reporter activity (compound concentration: 200 nM) was inactive: -0.3, the TEAD-luciferase reporter activity (compound concentration: 2 uM) was inactive: -0.625 and the TEAD-luciferase reporter activity (compound concentration: 10 uM) was inactive: 0.24.
`OO` [hydrogen peroxide] was tested, and the TEAD-luciferase reporter activity (compound concentration: 200 nM) was inactive: 0.377, the TEAD-luciferase reporter activity (compound concentration: 2 uM) was inactive: 0.352 and the TEAD-luciferase reporter activity (compound concentration: 10 uM) was inactive: 0.0104.

Source: the supplement of paper PMC10735217
